Some of the results follow.
Columns and labels:
Test in all cases: log2 fold change, soluble protein after heating vs DMSO (PISA); higher = thermal stabilisation; K562 lysate, 10 uM; active = over 0.2 and 3.5 SD of the protein, either way, in both replicates (recomputed)
lapatinib = compound: CS(=O)(=O)CCNCc1ccc(-c2ccc3ncnc(Nc4ccc(OCc5cccc(F)c5)c(Cl)c4)c3c2)o1 [lapatinib]
How it was run: (§1)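 Pellets of K562 cells were dounce-homogenised in PBS pH 7.4 with 1 mM MgCl2, and the crude extract was held at 1 mg/mL protein for a 30 min treatment with 10 μM compound. Aliquots were heated for 3 min over 48°C-58°C and pooled before NP-40 was added to 0.5% at 4°C. The supernatant from 21,000xg for 90 min was quantified by TMTpro 16plex LC-MS/MS with channel sums equalised. Values are reported from duplicates as log-two fold change in thermal stability relative to solvent controls.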

The chains behind the UniProt entries cited, without tags or fusion partners. Where a name states a change or a piece, a line headed by the entry shows the natural chain unless it says otherwise.
UniProt Q3L8U1: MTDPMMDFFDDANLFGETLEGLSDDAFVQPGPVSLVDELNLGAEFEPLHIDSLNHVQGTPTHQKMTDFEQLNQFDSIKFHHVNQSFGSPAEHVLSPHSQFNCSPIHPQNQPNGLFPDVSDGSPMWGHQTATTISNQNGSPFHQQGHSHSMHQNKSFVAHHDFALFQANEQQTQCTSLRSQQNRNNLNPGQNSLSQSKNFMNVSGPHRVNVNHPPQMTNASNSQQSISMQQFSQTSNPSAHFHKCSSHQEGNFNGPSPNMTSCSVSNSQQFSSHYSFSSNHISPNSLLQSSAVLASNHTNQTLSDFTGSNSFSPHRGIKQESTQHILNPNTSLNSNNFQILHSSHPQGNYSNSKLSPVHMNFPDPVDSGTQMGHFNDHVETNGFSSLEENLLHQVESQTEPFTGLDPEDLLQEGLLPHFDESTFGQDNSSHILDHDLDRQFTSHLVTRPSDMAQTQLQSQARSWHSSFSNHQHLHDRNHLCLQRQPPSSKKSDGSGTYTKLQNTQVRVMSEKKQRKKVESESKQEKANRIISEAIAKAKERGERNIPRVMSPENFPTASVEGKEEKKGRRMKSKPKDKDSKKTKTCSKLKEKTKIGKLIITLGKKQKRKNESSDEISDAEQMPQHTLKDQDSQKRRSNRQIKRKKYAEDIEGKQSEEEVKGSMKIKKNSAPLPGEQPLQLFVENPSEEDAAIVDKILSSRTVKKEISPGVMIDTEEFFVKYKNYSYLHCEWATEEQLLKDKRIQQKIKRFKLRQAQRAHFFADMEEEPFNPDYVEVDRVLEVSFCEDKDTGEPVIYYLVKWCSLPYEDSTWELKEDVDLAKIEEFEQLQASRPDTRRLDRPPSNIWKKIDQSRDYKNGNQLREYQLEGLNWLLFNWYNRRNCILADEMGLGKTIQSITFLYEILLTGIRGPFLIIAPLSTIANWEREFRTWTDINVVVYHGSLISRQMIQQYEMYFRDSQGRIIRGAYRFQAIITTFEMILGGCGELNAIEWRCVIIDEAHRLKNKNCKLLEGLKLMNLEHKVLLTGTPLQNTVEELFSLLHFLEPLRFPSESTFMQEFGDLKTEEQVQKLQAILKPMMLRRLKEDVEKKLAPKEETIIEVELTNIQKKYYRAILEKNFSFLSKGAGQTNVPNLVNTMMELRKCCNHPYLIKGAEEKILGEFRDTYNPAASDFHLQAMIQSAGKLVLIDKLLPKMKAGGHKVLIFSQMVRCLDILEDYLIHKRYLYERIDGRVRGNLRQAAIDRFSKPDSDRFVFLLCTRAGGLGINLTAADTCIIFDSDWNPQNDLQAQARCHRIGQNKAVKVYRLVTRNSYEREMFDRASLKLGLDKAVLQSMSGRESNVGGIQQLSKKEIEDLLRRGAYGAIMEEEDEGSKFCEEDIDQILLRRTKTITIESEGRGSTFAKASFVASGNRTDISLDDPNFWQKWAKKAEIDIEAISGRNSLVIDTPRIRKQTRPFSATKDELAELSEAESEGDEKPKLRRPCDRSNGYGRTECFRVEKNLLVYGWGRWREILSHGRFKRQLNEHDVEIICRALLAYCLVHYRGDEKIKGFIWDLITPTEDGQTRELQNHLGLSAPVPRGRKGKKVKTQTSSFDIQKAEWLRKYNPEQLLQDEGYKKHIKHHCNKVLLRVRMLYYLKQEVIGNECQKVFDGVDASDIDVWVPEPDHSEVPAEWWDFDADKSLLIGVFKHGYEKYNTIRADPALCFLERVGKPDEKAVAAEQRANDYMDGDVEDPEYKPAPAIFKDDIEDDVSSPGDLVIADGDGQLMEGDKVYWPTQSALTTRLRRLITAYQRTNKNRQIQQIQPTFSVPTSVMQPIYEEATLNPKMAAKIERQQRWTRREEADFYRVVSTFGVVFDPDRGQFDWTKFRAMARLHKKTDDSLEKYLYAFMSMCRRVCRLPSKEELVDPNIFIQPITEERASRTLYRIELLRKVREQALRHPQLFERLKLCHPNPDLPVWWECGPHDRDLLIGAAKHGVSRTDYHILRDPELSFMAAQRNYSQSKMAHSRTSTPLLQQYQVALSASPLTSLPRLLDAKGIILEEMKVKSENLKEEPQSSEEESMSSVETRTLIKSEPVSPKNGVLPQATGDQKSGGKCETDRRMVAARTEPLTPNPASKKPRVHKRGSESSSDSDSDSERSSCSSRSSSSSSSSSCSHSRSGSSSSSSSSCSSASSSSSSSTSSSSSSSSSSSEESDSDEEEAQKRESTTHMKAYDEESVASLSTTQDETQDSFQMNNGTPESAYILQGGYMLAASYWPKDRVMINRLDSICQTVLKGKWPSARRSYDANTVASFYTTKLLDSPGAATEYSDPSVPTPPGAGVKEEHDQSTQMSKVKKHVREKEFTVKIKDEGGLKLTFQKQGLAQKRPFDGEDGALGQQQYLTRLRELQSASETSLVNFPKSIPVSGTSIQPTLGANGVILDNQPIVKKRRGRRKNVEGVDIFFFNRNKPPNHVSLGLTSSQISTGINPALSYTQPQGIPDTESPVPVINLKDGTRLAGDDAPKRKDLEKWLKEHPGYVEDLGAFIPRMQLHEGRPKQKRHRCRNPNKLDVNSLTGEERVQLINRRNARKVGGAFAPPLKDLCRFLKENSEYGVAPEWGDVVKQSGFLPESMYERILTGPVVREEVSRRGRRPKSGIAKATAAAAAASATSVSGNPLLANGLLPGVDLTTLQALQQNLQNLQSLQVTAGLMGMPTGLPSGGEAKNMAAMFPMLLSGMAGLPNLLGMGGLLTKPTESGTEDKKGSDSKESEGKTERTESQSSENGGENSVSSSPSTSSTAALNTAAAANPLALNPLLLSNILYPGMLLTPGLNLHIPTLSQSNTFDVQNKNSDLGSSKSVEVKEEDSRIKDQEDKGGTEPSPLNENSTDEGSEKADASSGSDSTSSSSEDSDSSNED
UniProt Q9P2E5: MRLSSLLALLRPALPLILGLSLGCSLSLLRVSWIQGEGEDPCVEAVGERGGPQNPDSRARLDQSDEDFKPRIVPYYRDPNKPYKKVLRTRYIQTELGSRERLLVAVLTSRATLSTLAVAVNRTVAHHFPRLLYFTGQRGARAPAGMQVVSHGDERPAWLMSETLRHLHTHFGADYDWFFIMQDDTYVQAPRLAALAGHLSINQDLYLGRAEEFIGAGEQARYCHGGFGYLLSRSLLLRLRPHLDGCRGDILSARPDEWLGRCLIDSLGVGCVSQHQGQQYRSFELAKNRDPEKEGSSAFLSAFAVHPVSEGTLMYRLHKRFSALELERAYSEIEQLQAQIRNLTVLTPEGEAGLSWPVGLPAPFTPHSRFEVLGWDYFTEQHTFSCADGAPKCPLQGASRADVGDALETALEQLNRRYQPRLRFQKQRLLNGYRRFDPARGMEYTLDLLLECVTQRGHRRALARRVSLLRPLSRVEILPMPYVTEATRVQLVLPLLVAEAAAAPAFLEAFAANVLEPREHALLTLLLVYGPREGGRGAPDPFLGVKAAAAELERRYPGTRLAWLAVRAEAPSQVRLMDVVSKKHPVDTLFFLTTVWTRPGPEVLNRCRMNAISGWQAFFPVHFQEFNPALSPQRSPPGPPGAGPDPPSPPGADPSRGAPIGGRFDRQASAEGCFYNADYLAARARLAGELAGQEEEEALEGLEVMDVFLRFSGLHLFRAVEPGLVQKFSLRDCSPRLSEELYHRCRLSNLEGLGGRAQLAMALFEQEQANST
UniProt P33552, whole entry, looked up: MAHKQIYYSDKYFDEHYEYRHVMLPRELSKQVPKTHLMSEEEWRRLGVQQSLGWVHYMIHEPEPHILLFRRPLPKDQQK
UniProt Q13286: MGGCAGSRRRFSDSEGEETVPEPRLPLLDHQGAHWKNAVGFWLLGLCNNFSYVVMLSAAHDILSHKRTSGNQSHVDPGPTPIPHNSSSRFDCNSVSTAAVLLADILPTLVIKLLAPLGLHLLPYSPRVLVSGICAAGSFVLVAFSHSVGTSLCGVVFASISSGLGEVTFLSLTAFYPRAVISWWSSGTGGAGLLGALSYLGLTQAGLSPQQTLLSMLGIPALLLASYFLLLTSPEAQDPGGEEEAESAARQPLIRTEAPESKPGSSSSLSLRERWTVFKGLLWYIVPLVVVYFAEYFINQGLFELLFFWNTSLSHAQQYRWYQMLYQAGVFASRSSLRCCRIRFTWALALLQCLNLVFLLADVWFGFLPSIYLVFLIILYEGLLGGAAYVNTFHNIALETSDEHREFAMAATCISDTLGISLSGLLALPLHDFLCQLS
UniProt Q7Z460: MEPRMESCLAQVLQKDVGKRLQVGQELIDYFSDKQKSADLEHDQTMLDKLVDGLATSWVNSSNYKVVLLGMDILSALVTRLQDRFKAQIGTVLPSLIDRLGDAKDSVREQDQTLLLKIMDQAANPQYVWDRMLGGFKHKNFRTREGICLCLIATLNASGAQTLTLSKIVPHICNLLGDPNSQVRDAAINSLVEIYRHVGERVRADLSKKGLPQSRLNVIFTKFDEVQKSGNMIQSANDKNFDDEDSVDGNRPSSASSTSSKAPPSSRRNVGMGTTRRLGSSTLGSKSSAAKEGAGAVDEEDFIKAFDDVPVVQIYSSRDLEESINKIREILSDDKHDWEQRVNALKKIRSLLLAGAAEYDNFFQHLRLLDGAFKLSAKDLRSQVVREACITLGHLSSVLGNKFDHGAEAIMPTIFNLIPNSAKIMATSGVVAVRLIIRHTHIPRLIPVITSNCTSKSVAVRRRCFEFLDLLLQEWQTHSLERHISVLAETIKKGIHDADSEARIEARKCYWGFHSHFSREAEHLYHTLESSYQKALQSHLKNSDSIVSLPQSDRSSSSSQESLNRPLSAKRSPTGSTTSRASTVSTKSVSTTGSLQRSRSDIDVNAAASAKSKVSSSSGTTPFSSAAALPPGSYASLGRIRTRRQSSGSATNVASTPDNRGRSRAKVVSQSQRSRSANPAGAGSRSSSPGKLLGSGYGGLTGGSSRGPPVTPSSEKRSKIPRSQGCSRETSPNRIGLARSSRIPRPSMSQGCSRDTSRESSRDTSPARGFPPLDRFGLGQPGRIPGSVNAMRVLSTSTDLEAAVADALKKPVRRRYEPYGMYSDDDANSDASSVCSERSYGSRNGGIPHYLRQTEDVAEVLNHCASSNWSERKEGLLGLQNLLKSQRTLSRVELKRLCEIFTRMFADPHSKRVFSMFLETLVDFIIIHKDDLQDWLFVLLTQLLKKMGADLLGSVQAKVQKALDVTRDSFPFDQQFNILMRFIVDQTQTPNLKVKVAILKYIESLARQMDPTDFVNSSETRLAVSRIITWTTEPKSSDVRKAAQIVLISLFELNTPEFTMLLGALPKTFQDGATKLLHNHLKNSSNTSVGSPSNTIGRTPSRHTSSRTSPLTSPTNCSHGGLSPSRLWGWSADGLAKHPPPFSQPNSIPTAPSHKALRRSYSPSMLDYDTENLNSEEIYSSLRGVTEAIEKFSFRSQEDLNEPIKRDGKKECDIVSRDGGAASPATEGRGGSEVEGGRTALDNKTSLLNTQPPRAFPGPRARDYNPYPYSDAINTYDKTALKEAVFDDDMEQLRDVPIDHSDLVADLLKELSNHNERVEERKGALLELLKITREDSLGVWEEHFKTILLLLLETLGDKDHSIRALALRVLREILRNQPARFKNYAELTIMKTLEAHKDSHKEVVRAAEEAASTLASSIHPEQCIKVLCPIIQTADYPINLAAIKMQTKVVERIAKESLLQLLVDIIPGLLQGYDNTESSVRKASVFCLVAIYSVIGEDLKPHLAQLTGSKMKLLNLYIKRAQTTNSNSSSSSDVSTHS
UniProt P56277: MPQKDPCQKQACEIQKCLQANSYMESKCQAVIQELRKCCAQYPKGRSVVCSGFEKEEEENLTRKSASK
UniProt Q8WUD6: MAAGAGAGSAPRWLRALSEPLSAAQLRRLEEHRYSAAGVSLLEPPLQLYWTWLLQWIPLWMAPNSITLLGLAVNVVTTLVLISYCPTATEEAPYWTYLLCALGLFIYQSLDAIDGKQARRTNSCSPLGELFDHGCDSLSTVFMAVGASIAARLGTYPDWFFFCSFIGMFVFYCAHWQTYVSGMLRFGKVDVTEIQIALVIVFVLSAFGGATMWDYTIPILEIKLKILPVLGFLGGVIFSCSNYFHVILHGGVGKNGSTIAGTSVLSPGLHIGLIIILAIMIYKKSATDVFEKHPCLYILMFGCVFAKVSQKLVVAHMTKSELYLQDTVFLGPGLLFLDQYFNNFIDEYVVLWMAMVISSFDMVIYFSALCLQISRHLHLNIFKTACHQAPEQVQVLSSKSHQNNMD
UniProt Q5VXU3: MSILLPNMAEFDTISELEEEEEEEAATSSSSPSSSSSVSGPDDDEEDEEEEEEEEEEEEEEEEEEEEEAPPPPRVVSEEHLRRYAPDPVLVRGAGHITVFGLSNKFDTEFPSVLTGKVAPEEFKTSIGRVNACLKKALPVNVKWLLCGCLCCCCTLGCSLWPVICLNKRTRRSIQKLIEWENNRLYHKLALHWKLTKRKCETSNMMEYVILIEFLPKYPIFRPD
UniProt Q9BSY4: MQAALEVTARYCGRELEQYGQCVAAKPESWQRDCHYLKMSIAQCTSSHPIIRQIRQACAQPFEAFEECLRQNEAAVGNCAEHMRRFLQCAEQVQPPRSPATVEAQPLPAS

[1] = compound: NC(=O)c1cnc(N[C@@H]2CCCC[C@@H]2N)nc1Nc1cccc(-n2nccn2)c1
How it was run: as §1

crizotinib = compound: C[C@@H](Oc1cc(-c2cnn(C3CCNCC3)c2)cnc1N)c1c(Cl)ccc(F)c1Cl [crizotinib]
How it was run: as §1

[2] = compound: C[C@H](C1=CC=C(C=C1)C(=O)NC2=C3C=CNC3=NC=C2)N
How it was run: as §1

duvelisib = compound: C[C@H](Nc1ncnc2nc[nH]c12)c1cc2cccc(Cl)c2c(=O)n1-c1ccccc1 [duvelisib]
How it was run: as §1

gandotinib = compound: Cc1cc(Nc2cc(CN3CCOCC3)c3nc(C)c(Cc4ccc(Cl)cc4F)n3n2)n[nH]1 [gandotinib]
How it was run: as §1

doramapimod = compound: Cc1ccc(-n2nc(C(C)(C)C)cc2NC(=O)Nc2ccc(OCCN3CCOCC3)c3ccccc23)cc1 [doramapimod]
How it was run: as §1

[3] = compound: Cc1cccc(CC(=O)N2CCc3c2ccc(-c2cn(C)c4ncnc(N)c24)c3F)n1
How it was run: as §1

nilotinib = compound: Cc1cn(-c2cc(NC(=O)c3ccc(C)c(Nc4nccc(-c5cccnc5)n4)c3)cc(C(F)(F)F)c2)cn1 [nilotinib]
How it was run: as §1

[4] = compound: Cc1nc(Nc2n[nH]c3c2CN(C(=O)N[C@H](CN(C)C)c2ccccc2)C3(C)C)c2sccc2n1
How it was run: as §1

dasatinib = compound: Cc1nc(Nc2ncc(C(=O)Nc3c(C)cccc3Cl)s2)cc(N2CCN(CCO)CC2)n1 [dasatinib]
How it was run: as §1

[5] = compound: Cc1ncc(-c2ccnc(Nc3ccc(S(C)(=O)=O)cc3)n2)n1C(C)C
How it was run: as §1

[6] = compound: Cn1cc(-c2ccc3c(c2)CCN3C(=O)Cc2cccc(C(F)(F)F)c2)c2c(N)ncnc21
How it was run: as §1

quisinostat = compound: Cn1cc(CNCC2CCN(c3ncc(C(=O)NO)cn3)CC2)c2ccccc21 [quisinostat]
How it was run: as §1

tipifarnib = compound: Cn1cncc1[C@@](N)(c1ccc(Cl)cc1)c1ccc2c(c1)c(-c1cccc(Cl)c1)cc(=O)n2C [tipifarnib]
How it was run: as §1

[7] = compound: NC(=O)Nc1cc(-c2cccc(F)c2)sc1C(=O)N[C@H]1CCCNC1
How it was run: as §1

[8] = compound: NC1(c2ccc(-c3nc4ccn5c(=O)[nH]nc5c4cc3-c3ccccc3)cc2)CCC1
How it was run: as §1

pictilisib = compound: CS(=O)(=O)N1CCN(Cc2cc3nc(-c4cccc5[nH]ncc45)nc(N4CCOCC4)c3s2)CC1 [pictilisib]
How it was run: as §1

bafetinib = compound: Cc1ccc(NC(=O)c2ccc(CN3CC[C@H](N(C)C)C3)c(C(F)(F)F)c2)cc1Nc1nccc(-c2cncnc2)n1 [bafetinib]
How it was run: as §1

tozasertib = compound: Cc1cc(Nc2cc(N3CCN(C)CC3)nc(Sc3ccc(NC(=O)C4CC4)cc3)n2)n[nH]1 [tozasertib]
How it was run: as §1

Measured: log2 fold change

CKMT2 (UniProt D6RHV3)
inactive: lapatinib -0.21 | [1] -0.132

CHD9 (UniProt Q3L8U1)
active: [2] 1.37
inactive: crizotinib 0.055 | duvelisib 0.106 | gandotinib -0.111 | doramapimod -0.057 | [3] -0.27 | nilotinib 0.209 | [4] 0.125 | dasatinib -0.124 | [5] -0.279 | [6] -0.109 | quisinostat -0.029 | tipifarnib -0.017 | [7] 0 | [8] 0.032

CHMP2A (UniProt M0R1T5)
inactive: [2] 0.128 | gandotinib 0.033 | [3] -0.062

CLCN5 isoform 2 (UniProt P51795)
inactive: lapatinib 0.057 | [1] 0.305 | [8] 0.089

CLU isoform 2 (UniProt P10909)
inactive: [2] 0.049 | gandotinib -0.087 | [3] 0.315

CIC (UniProt I3L1Q4)
inactive: pictilisib 0.065 | bafetinib 0.021

CLN5 (UniProt O75503)
inactive: lapatinib 0.178 | [2] -0.1 | gandotinib -0.026 | tozasertib -0.068 | bafetinib -0.06 | [3] -0.022 | nilotinib -0.097 | [4] 0.117 | [5] 0.05 | tipifarnib -0.023 | [1] 0.214 | [8] -0.049

CHPF (UniProt Q8IZ52)
inactive: pictilisib -0.048 | crizotinib -0.082 | [2] -0.079 | duvelisib -0.074 | gandotinib -0.007 | tozasertib 0.069 | doramapimod 0.082 | bafetinib 0.071 | [3] 0.174 | dasatinib 0.097 | [6] 0.017 | quisinostat 0.078 | [7] 0.165 | [8] 0.035

CLN6 (UniProt Q9NWW5)
inactive: crizotinib 0.015 | duvelisib -0.106 | tozasertib 0.023 | doramapimod -0.057 | bafetinib 0.013 | nilotinib 0.036 | [4] 0.061 | dasatinib -0.021 | [5] 0.051 | [6] 0.009 | quisinostat 0.132 | tipifarnib -0.06 | [7] -0.1 | [8] 0.01

CHST14 (UniProt Q8NCH0)
inactive: crizotinib -0.034 | [2] -0.031 | duvelisib 0.005 | gandotinib 0.006 | doramapimod 0.113 | [3] 0.035 | nilotinib -0.009 | [4] -0.204 | dasatinib -0.1 | [5] 0.07 | [6] 0.148 | quisinostat -0.08 | tipifarnib 0.004 | [7] 0.069

CKAP2L (UniProt Q8IYA6)
inactive: crizotinib 0.03 | [2] -0.056 | duvelisib -0.327 | gandotinib 0.056 | tozasertib 0.137 | doramapimod -0.057 | [3] -0.029 | nilotinib 0.028 | [4] 0.011 | dasatinib -0.079 | [5] 0.165 | [6] -0.065 | quisinostat -0.083 | tipifarnib -0.005 | [7] -0.018 | [8] -0.265

CLDN7 (UniProt O95471)
inactive: tozasertib 0.105

CHPF2 (UniProt Q9P2E5)
inactive: crizotinib 0.007 | duvelisib 0.067 | tozasertib 0.185 | doramapimod 0.015 | dasatinib -0.179 | [6] 0.123 | quisinostat -0.052 | [7] 0.064 | [8] 0.073

CKS2 (UniProt P33552)
inactive: [2] 0.089 | gandotinib -0.169 | tozasertib 0.158 | [3] -0.091 | nilotinib -0.138 | [4] 0.067 | [5] -0.102 | tipifarnib 0.106

CLIP1, A0A3B3ITA2
inactive: crizotinib -0.033 | [2] -0.222 | gandotinib 0.55 | doramapimod -0.138 | [3] 0.269 | quisinostat -0.169 | [7] 0.017

CLN3 (UniProt Q13286)
inactive: lapatinib 0.073 | duvelisib -0.025 | bafetinib -0.164 | nilotinib -0.1 | [4] -0.074 | dasatinib -0.043 | [5] -0.028 | [6] 0.041 | tipifarnib -0.056 | [1] 0.037 | [8] 0.001

CLUAP1 (UniProt I3L2E1)
inactive: lapatinib -0.087 | crizotinib -0.554 | tozasertib -0.115 | doramapimod 0.079 | bafetinib -0.025 | nilotinib 0.105 | [4] -0.238 | [5] 0.26 | quisinostat -0.656 | tipifarnib -0.18 | [7] -0.023 | [1] 0 | [8] -0.049

CLASP1 isoform 4 (UniProt Q7Z460)
inactive: nilotinib -0.113 | [4] 0.126 | [5] 0.09 | tipifarnib -0.301 | [8] 0.111

CITED2 (UniProt Q99967)
inactive: duvelisib -0.016 | dasatinib -0.061 | [6] -0.094 | [8] -0.022

CLUL1 (UniProt Q15846)
inactive: lapatinib -0.152 | [2] -0.188 | gandotinib 0.04 | bafetinib -0.304 | [3] 0.143 | nilotinib -0.01 | [4] 0.002 | [5] 0.04 | tipifarnib -0.046 | [1] -0.134

CMTR2 (UniProt Q8IYT2)
inactive: lapatinib -0.235 | nilotinib 0.017 | [4] 0.313 | [5] 0.205 | tipifarnib -0.017 | [1] 0.087

CMC4 (UniProt P56277)
inactive: lapatinib 0.006 | crizotinib 0.003 | doramapimod -0.237 | nilotinib 0.168 | [4] 0.001 | [5] -0.221 | quisinostat 0.023 | tipifarnib -0.105 | [7] 0.033 | [1] 0.045 | [8] -0.061

CHPT1 (UniProt Q8WUD6)
inactive: pictilisib -0.012 | [2] 0.259 | gandotinib -0.238 | bafetinib 0.04 | [3] -0.166

CHD4, A0A2R8Y521
inactive: lapatinib 0.025 | duvelisib 0.006 | tozasertib 0.081 | nilotinib -0.125 | [4] -0.088 | dasatinib -0.09 | [5] -0.156 | [6] -0.247 | tipifarnib 0.391 | [1] -0.174

CLINT1 (UniProt Q14677)
inactive: crizotinib 0.019 | [2] 0.004 | duvelisib -0.019 | gandotinib 0.187 | tozasertib -0.037 | doramapimod 0.226 | bafetinib -0.055 | [3] 0.077 | dasatinib 0.005 | [6] -0.02 | quisinostat 0.183 | [7] 0.111

CHST10 (UniProt O43529)
inactive: [2] 0.004 | gandotinib -0.038 | [3] 0.06 | [8] 0.014

CHD6 (UniProt Q8TD26)
inactive: pictilisib -0.229 | crizotinib -0.016 | [2] 0.018 | duvelisib 0.096 | gandotinib -0.04 | tozasertib 0.072 | doramapimod -0.002 | bafetinib 0.132 | [3] -0.078 | nilotinib -0.001 | [4] 0.006 | dasatinib 0.055 | [5] -0.032 | [6] 0.076 | quisinostat -0.035 | tipifarnib 0.022 | [7] -0.074

CHIC1 (UniProt Q5VXU3)
inactive: [2] 0.192 | gandotinib -0.107 | [3] -0.123

CLEC11A (UniProt Q9Y240)
inactive: lapatinib 0 | crizotinib 0.14 | tozasertib 0.096 | doramapimod 0.032 | quisinostat 0.05 | [7] -0.003 | [1] -0.133 | [8] -0.004

Seven neighbouring records from above:
CLUL1 (UniProt Q15846)
inactive: lapatinib -0.152 | [2] -0.188 | gandotinib 0.04 | bafetinib -0.304 | [3] 0.143 | nilotinib -0.01 | [4] 0.002 | [5] 0.04 | tipifarnib -0.046 | [1] -0.134

CMTR2 (UniProt Q8IYT2)
inactive: lapatinib -0.235 | nilotinib 0.017 | [4] 0.313 | [5] 0.205 | tipifarnib -0.017 | [1] 0.087

CMC4 (UniProt P56277)
inactive: lapatinib 0.006 | crizotinib 0.003 | doramapimod -0.237 | nilotinib 0.168 | [4] 0.001 | [5] -0.221 | quisinostat 0.023 | tipifarnib -0.105 | [7] 0.033 | [1] 0.045 | [8] -0.061

CHPT1 (UniProt Q8WUD6)
inactive: pictilisib -0.012 | [2] 0.259 | gandotinib -0.238 | bafetinib 0.04 | [3] -0.166

CHD4, A0A2R8Y521
inactive: lapatinib 0.025 | duvelisib 0.006 | tozasertib 0.081 | nilotinib -0.125 | [4] -0.088 | dasatinib -0.09 | [5] -0.156 | [6] -0.247 | tipifarnib 0.391 | [1] -0.174

CLINT1 (UniProt Q14677)
inactive: crizotinib 0.019 | [2] 0.004 | duvelisib -0.019 | gandotinib 0.187 | tozasertib -0.037 | doramapimod 0.226 | bafetinib -0.055 | [3] 0.077 | dasatinib 0.005 | [6] -0.02 | quisinostat 0.183 | [7] 0.111

CHST10 (UniProt O43529)
inactive: [2] 0.004 | gandotinib -0.038 | [3] 0.06 | [8] 0.014

(cont.)

CHURC1-FNTB (UniProt B4DL54)
inactive: crizotinib -0.061 | [2] -0.24 | gandotinib 0.07 | tozasertib 0.033 | doramapimod 0.365 | [3] 0.151 | quisinostat -0.037 | [7] 0.017

CLK2 (UniProt P49760)
inactive: lapatinib 0.004 | crizotinib -0.037 | duvelisib -0.11 | doramapimod 0.011 | dasatinib -0.022 | [6] -0.022 | quisinostat 0.037 | [7] -0.065 | [1] -0.305

CHCHD5 (UniProt Q9BSY4)
inactive: crizotinib 0.097 | [2] 0.213 | duvelisib -0.066 | gandotinib -0.088 | doramapimod -0.163 | [3] 0.063 | nilotinib 0.027 | [4] -0.208 | dasatinib 0.065 | [5] -0.128 | [6] -0.082 | quisinostat 0.344 | tipifarnib 0.028 | [7] 0.097 | [8] 0.1
